Experimental data published in paper doi:10.1101/2022.02.02.478874.
Results are given in words; binding and its absence hold for the method and conditions named. Some binding calls cover weakened binding; strength is not graded here.

Legend:
[1] = biological target: Dynactin p25 with a 6His tag (p25-6His) (UniProt Q9BTE1); experiment: co-purification of co-expressed subunits
[2] = biological target: ROD-Zwilch-ZW10 (RZZ) complex with mCherry on ROD (UniProt P50748); experiment: SEC
[3] = biological target: Dynactin pointed end (PE) complex (p25, p27, p62, Arp11) (UniProt Q9BTE1); experiment: SEC

Substance | binding [1] | binding [2] | binding [3]
Dynactin Arp11 (from UniProt Q9NZ32 1-417) | binds | – | –
Dynactin p27 (from UniProt O00399 1-190) | binds | – | –
^mChSpindly^Chimera (BICD2 1-292 joined to Spindly 251-605) (from UniProt Q8TD16;Q96EA4) | – | binds | binds
